Laboratory results as given in patent US6365734B1, “Cucurbituril derivatives, their preparation methods and uses” (Pohang University of Science and Technology Foundation, priority 1999, dated 2002).

Assay: Organic dye removal from water, UV absorption of filtrate
Experimental: 30 mg of organic dye, Direct Red 5B (commercially available from Ciba-Geigy Co.) was dissolved in 150 ml of water to prepare an organic dye solution. To half the organic dye solution, 150 mg of cucurbit[7]uril was added and stirred for 30 minutes.
The precipitate was filtered, and UV absorption spectra were measured at λmax=510 nm on the filtrate and the remaining half of the organic dye solution which was not treated with the cucurbut[7]uril.
R=UV absorption intensity of the dye solution treated with cucurbit[7]uril ×100/UV absorption intensity of the dye solution before the treatment with cucurbit[7]uril.
The following dyes were used: Reactive Blue HE-G (produced by Kyung-In Co.), Direct Solophenyl Violet 4BL (produced by Ciba-Geigy Co.), Reactive Navy Blue HE-R 150 (produced by Kyung-In Co.), Disperse Yellow E-3 (produced by LG Co.), Disperse T/Q Blue S-GL (produced by LG Co.) and Orange TGL (produced by Ciba-Geigy Co.).

## cucurbit[7]uril
Direct Red 5B, λmax 510 nm, 1.43 before treatment
  Absorption intensity after treatment: 2.37×10^−2
Reactive Blue HE-G, λmax 626 nm, 1.13 before treatment
  Absorption intensity after treatment: 3.93 × 10^−2
Reactive Blue HE-G, λmax 662 nm, 1.18 before treatment
  Absorption intensity after treatment: 3.77 × 10^−3

Some values come without a unit; they compare only within their column.
